Results deposited as PubChem BioAssay AID624150 (Cancer Research UK Cambridge, 2012).
In all, the deposit lists 331 reagents; below is a random part of them. 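Each arm had three replicate z-scores, but only the first replicate is printed; higher values mean more differentiation marker per cell.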 Not all columns of the deposit are shown.

- Test: 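Which chromatin factors steer differentiation of epidermal stem cells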 (primary screen)
- System: primary human epidermal keratinocytes
- Reagent: siRNA pool against human genes, 1-2 µM siRNA in 20 µl nucleofection
- Duration: 72 h after transfection plus 48 h differentiation (about 5 days)
- Treatment: five arms for 48 h: vehicle, AG1478 10 µM, BMP2/7 200 ng/ml, both together, or 10% serum
- Detection: 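Transglutaminase 1 immunostaining divided by DNA staining in each well, background removed, then z-scored versus every test siRNA on that plate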
- Scale: z-score, vehicle and z-score, AG1478 10 µM: higher = more differentiation marker per cell

HLTF (helicase like transcription factor) showed z-score, vehicle -0.0139; z-score, AG1478 10 µM -0.681.
With knock-down of TAF1 (TATA-box binding protein associated factor 1), the record shows z-score, vehicle -0.235; z-score, AG1478 10 µM -1.54.
Against CHD1 (chromodomain helicase DNA binding protein 1), the values are z-score, vehicle 0.0323; z-score, AG1478 10 µM 0.89.
Against SHPRH (SNF2 histone linker PHD RING helicase), the entry reads z-score, vehicle 1.65; z-score, AG1478 10 µM 1.65.
KDM3A (lysine demethylase 3A) scored z-score, vehicle 0.853; z-score, AG1478 10 µM 0.114.
Against ING1 (inhibitor of growth family member 1), the values are z-score, vehicle -1.23; z-score, AG1478 10 µM -0.532.
RERE (arginine-glutamic acid dipeptide repeats) gave z-score, vehicle 0.23; z-score, AG1478 10 µM -0.454.
After knock-down of CBX1 (chromobox 1) the results were z-score, vehicle -0.234; z-score, AG1478 10 µM 0.336.
With knock-down of SIRT1 (sirtuin 1), the screen gave z-score, vehicle -0.291; z-score, AG1478 10 µM -1.87.
After knock-down of CHD7 (chromodomain helicase DNA binding protein 7), the record shows z-score, vehicle -0.413; z-score, AG1478 10 µM -0.469.
With knock-down of KAT5 (lysine acetyltransferase 5), the record shows z-score, vehicle -1.09; z-score, AG1478 10 µM 0.845.
MTA1 (metastasis associated 1) showed z-score, vehicle -0.837; z-score, AG1478 10 µM -0.142.
MBD3 (methyl-CpG binding domain protein 3) gave z-score, vehicle -0.327; z-score, AG1478 10 µM 1.07.
With knock-down of CDY2A (chromodomain Y-linked 2A) the results were z-score, vehicle -0.819; z-score, AG1478 10 µM -0.251.
Against CBX2 (chromobox 2), the values are z-score, vehicle 0.309; z-score, AG1478 10 µM 0.0858.

Reformatted: results already given
{"Target gene":"HLTF (helicase like transcription factor)","z-score, vehicle":-0.0139,"z-score, AG1478 10 µM":-0.681}
{"Target gene":"TAF1 (TATA-box binding protein associated factor 1)","z-score, vehicle":-0.235,"z-score, AG1478 10 µM":-1.54}
{"Target gene":"CHD1 (chromodomain helicase DNA binding protein 1)","z-score, vehicle":0.0323,"z-score, AG1478 10 µM":0.89}
{"Target gene":"SHPRH (SNF2 histone linker PHD RING helicase)","z-score, vehicle":1.65,"z-score, AG1478 10 µM":1.65}

The list goes on.
PHF19 (PHD finger protein 19) scored z-score, vehicle -1.84; z-score, AG1478 10 µM -2.46.
Against TDRD7 (tudor domain containing 7), the values are z-score, vehicle 1.09; z-score, AG1478 10 µM 1.31.
After knock-down of L3MBTL4 (L3MBTL histone methyl-lysine binding protein 4) the results were z-score, vehicle -1.02; z-score, AG1478 10 µM 0.0266.
GATAD2B (GATA zinc finger domain containing 2B) scored z-score, vehicle -1.1; z-score, AG1478 10 µM -1.05.
With knock-down of MRM3 (mitochondrial rRNA methyltransferase 3), the record shows z-score, vehicle 0.292; z-score, AG1478 10 µM -0.269.
Depletion of KDM2B (lysine demethylase 2B) gave: z-score, vehicle 1.04; z-score, AG1478 10 µM 0.151.
Silencing of KAT2A (lysine acetyltransferase 2A) resulted in: z-score, vehicle 0.655; z-score, AG1478 10 µM -0.0584.
For HDGF (heparin binding growth factor), the values are z-score, vehicle -1.14; z-score, AG1478 10 µM -1.56.
EZH1 (enhancer of zeste 1 polycomb repressive complex 2 subunit) gave z-score, vehicle -0.51; z-score, AG1478 10 µM 0.121.
HDAC6 (histone deacetylase 6) gave z-score, vehicle -0.321; z-score, AG1478 10 µM 1.23.
Silencing of STK31 (serine/threonine kinase 31) gave: z-score, vehicle 2.08; z-score, AG1478 10 µM 1.96.
For L3MBTL2 (L3MBTL histone methyl-lysine binding protein 2), the entry reads z-score, vehicle 1.07; z-score, AG1478 10 µM -0.372.
ING3 (inhibitor of growth family member 3) scored z-score, vehicle 0.399; z-score, AG1478 10 µM 0.598.
